Values joined by “and” are separate entries in the source; they are usually repeats but may differ in a detail not shown here. Equal entries are not always repeated. Inconclusive means that the source gave no clear call. Such entries were picked first, then a sample of the others. Potencies beside an inconclusive call are fits to weak or partial responses and may not hold up. More than one record can exist for a structure, and the calls need not agree. Active and inactive are the calls of the source. Rule for the calls: active = hit-call score of the fitted dose curve at least 0.9, where 1 is the maximum; inconclusive = response in the unintended direction; inactive = score below 0.9.
Target: Estrogen receptor (Homo sapiens) + Estrogen receptor beta (Homo sapiens) (UniProt P03372+Q92731)
Assay: OT_ER_ERaERb_1440: Odyssey Thera (OT) 24-hour HEK293T Protein-Complementation Assay for Estrogen Receptor-alpha/-beta Homodimer (AID 2283356);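 note: heteromer of ER alpha and ER beta binding domains; hits raise reporter fluorescence and both agonists and antagonists give an increase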
Method in brief: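 HEK293T cells stably expressing a PCA pair of ERα LBD (aa 310-547) and ERβ LBD (aa 263-489) were dosed for 24 h. Fluorescence intensity increase versus DMSO vehicle was fitted as gain-of-signal.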

The chains behind the UniProt entries cited, without tags or fusion partners. Where a name states a change or a piece, a line headed by the entry shows the natural chain unless it says otherwise.
UniProt P03372, whole entry, looked up: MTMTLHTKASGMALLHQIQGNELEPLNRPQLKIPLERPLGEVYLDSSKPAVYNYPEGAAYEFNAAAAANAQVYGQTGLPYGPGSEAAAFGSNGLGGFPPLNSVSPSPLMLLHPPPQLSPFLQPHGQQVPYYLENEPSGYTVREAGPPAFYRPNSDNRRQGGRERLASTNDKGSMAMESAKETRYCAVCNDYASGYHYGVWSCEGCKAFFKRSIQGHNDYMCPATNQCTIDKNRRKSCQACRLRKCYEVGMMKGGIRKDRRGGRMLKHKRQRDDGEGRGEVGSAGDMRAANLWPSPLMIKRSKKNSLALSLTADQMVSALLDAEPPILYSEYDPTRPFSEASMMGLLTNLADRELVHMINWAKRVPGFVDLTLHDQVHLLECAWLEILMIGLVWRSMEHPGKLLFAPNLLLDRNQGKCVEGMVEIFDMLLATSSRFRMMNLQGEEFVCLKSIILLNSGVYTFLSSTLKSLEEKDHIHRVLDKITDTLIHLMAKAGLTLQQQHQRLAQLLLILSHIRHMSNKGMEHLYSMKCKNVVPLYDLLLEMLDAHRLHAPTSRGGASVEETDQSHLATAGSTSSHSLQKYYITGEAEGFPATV
UniProt Q92731, whole entry, looked up: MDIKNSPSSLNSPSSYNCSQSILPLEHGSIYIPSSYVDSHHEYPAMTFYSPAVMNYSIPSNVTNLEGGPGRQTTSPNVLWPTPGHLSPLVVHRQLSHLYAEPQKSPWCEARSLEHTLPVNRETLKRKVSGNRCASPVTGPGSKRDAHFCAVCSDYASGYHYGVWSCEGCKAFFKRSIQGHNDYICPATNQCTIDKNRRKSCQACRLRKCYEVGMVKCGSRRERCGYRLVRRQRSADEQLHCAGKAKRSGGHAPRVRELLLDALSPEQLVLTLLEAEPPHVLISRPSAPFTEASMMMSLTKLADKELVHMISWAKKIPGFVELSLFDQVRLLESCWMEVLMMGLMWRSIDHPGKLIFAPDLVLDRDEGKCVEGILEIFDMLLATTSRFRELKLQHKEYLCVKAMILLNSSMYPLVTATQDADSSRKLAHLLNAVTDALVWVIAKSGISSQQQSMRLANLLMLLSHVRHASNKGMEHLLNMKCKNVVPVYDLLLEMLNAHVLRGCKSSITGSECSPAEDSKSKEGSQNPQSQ
UniProt P10276, whole entry, looked up: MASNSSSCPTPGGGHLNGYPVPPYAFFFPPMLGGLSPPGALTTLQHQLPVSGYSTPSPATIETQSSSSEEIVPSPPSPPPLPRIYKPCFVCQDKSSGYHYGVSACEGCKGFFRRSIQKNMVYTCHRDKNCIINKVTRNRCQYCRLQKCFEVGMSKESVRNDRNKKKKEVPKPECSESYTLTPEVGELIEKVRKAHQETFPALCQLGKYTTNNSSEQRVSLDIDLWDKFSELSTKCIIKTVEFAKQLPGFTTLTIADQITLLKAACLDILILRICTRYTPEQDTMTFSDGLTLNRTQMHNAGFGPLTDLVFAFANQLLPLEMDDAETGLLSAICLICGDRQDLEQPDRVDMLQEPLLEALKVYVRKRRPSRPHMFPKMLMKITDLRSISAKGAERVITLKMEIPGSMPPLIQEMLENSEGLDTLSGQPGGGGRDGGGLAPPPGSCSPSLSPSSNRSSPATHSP
UniProt Q07869: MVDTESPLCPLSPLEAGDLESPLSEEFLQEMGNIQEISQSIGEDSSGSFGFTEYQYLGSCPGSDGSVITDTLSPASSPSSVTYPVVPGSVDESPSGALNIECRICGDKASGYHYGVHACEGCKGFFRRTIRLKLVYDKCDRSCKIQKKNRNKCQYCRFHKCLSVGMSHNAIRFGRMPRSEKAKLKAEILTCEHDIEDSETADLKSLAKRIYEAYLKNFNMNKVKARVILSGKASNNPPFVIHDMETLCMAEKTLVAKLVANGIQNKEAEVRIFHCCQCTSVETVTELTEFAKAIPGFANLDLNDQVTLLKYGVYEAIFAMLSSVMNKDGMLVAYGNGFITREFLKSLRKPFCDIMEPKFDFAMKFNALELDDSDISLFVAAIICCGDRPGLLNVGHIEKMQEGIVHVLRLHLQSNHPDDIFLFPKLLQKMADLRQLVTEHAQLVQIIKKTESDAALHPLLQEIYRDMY
UniProt P06401: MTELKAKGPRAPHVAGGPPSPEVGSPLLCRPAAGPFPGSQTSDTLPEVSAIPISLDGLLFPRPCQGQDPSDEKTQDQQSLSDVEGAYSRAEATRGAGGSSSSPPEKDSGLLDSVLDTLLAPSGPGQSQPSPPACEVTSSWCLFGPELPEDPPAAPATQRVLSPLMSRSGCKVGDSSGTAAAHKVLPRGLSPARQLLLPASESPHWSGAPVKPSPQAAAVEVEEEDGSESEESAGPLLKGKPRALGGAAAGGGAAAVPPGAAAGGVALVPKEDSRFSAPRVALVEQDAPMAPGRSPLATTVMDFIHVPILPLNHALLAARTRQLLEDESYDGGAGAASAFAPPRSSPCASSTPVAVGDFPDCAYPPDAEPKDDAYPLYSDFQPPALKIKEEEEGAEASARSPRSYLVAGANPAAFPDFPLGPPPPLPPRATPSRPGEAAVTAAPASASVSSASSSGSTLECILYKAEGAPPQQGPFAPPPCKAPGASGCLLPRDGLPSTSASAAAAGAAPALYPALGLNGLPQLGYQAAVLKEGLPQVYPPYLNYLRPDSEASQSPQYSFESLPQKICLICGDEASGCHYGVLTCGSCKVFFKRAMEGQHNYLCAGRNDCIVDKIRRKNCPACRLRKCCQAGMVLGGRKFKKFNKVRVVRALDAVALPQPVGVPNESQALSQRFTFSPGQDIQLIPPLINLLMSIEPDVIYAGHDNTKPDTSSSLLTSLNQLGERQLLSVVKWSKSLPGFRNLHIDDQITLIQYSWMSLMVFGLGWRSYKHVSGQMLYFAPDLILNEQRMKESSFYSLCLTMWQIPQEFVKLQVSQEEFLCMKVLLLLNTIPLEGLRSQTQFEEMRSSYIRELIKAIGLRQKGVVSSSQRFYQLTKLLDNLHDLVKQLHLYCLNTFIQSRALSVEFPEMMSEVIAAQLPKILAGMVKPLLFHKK

SMILES | outcome | AC50
CCCCCCCCCC[N+](C)(C)CCCCCCCCCC | inactive | –
CCN(CC)c1nc(C)cc(OP(=S)(OC)OC)n1 | – | active: 34.9 µM
CCOCN(C(=O)CCl)c1c(C)cccc1CC | inactive | –
O=[N+]([O-])c1cc(C(F)(F)F)c(Cl)c([N+](=O)[O-])c1Nc1ncc(C(F)(F)F)cc1Cl | – | inconclusive: 23.3 µM
O=C(N[C@H]1CN2CCC1CC2)c1cc2ccoc2cn1 | inactive | –
COc1cnc(OC)n2nc(NS(=O)(=O)c3c(OCC(F)F)cccc3C(F)(F)F)nc12 | – | inconclusive: 50 µM
O=C(Nc1ccc2[nH]ccc2c1)c1cc2cc(F)ccc2n1Cc1cccc(F)c1 | – | inconclusive: 50 µM
CCCCc1ccccc1 | inactive | –
CC(C)(C)C(=O)C(Oc1ccc(Cl)cc1)n1cncn1 (stereo not drawn) | – | active: 58.6 µM
Cn1c(-c2ccccc2)cc(-c2ccccc2)[n+]1C | – | inconclusive: 50 µM
O=C1c2ccccc2C(=O)N1SC(Cl)(Cl)Cl | – | inconclusive: 88.7 µM
CCOP(=S)(OCC)SCSP(=S)(OCC)OCC | – | active: 9.13 µM
CC(C)N(C(=O)COc1nnc(C(F)(F)F)s1)c1ccc(F)cc1 | – | inconclusive: 50 µM
CCN(CC)C(=O)C(C)Oc1cccc2ccccc12 (stereo not drawn) | inactive | –
CC(C)N1C(=O)N(c2ccccc2)CSC1=NC(C)(C)C | inactive | –
N#CCCC(Br)(C#N)CBr (stereo not drawn) | – | active: 11.8 µM
CN1CSC(=S)N(C)C1 | – | inconclusive: 94.1 µM
CC(C)(c1ccc(OCC2CO2)cc1)c1ccc(OCC2CO2)cc1 (stereo not drawn) | – | inconclusive: 88.8 µM
CC(C)(O)C(=O)Nc1ccc([N+](=O)[O-])c(C(F)(F)F)c1 | inactive | –
Fc1ccc(C2(Cn3cncn3)OC2c2ccccc2Cl)cc1 (stereo not drawn) | – | active: 27.3 µM
N#Cc1nn(-c2c(Cl)cc(C(F)(F)F)cc2Cl)c(N)c1S(=O)C(F)(F)F (stereo not drawn) | inactive | –

Target: Estrogen receptor beta (Homo sapiens) (UniProt Q92731)
Assay: OT_ER_ERbERb_0480: Odyssey Thera (OT) 8-hour HEK293T Protein-Complementation Assay for Estrogen Receptor-beta/-beta Homodimer (AID 2283357);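 note: active means signal gain over DMSO baseline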
Method in brief: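 ER-beta LBD homodimer PCA stably expressed in HEK293T; 8 h compound exposure, then formaldehyde fixation and Draq5 staining. Gain in nuclear/cytoplasmic fluorescence intensity versus DMSO vehicle, read on laser scanning cytometer.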

SMILES | AC50 | outcome
CCCCCCCCCC[N+](C)(C)CCCCCCCCCC | inconclusive: 50 µM | –
CCOCN(C(=O)CCl)c1c(C)cccc1CC | inconclusive: 50 µM | –
O=[N+]([O-])c1cc(C(F)(F)F)c(Cl)c([N+](=O)[O-])c1Nc1ncc(C(F)(F)F)cc1Cl | inconclusive: 50 µM | –
O=C(Nc1ccc2[nH]ccc2c1)c1cc2cc(F)ccc2n1Cc1cccc(F)c1 | inconclusive: 50 µM | –
CCC(C)(C)C(=O)OC1=C(c2ccc(Cl)cc2Cl)C(=O)OC12CCCCC2 | inconclusive: 22.4 µM | –
Cn1c(-c2ccccc2)cc(-c2ccccc2)[n+]1C | – | inactive
CCNP(=S)(OC)O/C(C)=C/C(=O)OC(C)C (stereo not drawn) | – | inactive
CCOP(=S)(OCC)SCSP(=S)(OCC)OCC | active: 14.7 µM | –
N#CCCC(Br)(C#N)CBr (stereo not drawn) | inconclusive: 11.9 µM | –
C[C@]12C=CC3=C4CCC(=O)C=C4CC[C@H]3[C@@H]1CC[C@@H]2O | active: 370 nM and active: 12.5 µM | –
CCc1cccc(CC)c1N(COC)C(=O)CCl | inconclusive: 50 µM | –
N#Cc1nn(-c2c(Cl)cc(C(F)(F)F)cc2Cl)c(N)c1S(=O)C(F)(F)F (stereo not drawn) | inconclusive: 50.5 µM | –

Target: Retinoic acid receptor alpha (Homo sapiens) (UniProt P10276)
Assay: NVS_NR_hRAR_Antagonist: NovaScreen (NVS) Nuclear Receptor Binding Assay for human Retinoic Acid Alpha Receptor Antagonism (RAR) (AID 2283358)
Method in brief: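 RARalpha antagonism was read by TR-FRET as loss of binding signal versus DMSO, 2 h after chemical addition, in a biochemical format. Single-concentration duplicates (25 uM) were run first, and actives were retested in concentration series.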

SMILES | outcome | AC50
CCN(CC)c1nc(C)cc(OP(=S)(OC)OC)n1 | inactive | –
CC(C)(C)C(=O)C(Oc1ccc(Cl)cc1)n1cncn1 (stereo not drawn) | – | inconclusive: 25 µM
CN1CSC(=S)N(C)C1 | – | inconclusive: 25 µM
CC(C)(c1ccc(OCC2CO2)cc1)c1ccc(OCC2CO2)cc1 (stereo not drawn) | inactive | –

Target: human Peroxisome Proliferator-activated Receptor alpha (PPARa), PPARA (gene 5465) (UniProt Q07869)
Assay: NVS_NR_hPPARa: NovaScreen (NVS) Nuclear Receptor Binding Assay for human Peroxisome Proliferator-activated Receptor alpha (PPARa) (AID 2283359);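 note: activity means loss of TR-FRET signal versus DMSO baseline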
Method in brief: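 Loss of TR-FRET binding signal relative to DMSO was measured 1 h after chemical addition to extracted receptor protein. Chemicals were first tested in duplicate at 25 uM, and actives were followed up in concentration series.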

SMILES | AC50 | outcome
CCCCCCCCCC[N+](C)(C)CCCCCCCCCC | active: 861 nM | –
CCC[CH2][Sn]([Cl])([CH2]CCC)[CH2]CCC | active: 23.5 nM | –
COC(=O)C(C)Oc1ccc(Oc2ccc(Cl)cc2Cl)cc1 (stereo not drawn) | inconclusive: 8700 nM | –
Oc1cc(Cl)ccc1Oc1ccc(Cl)cc1Cl | inconclusive: 25500 nM | –
CC(C)(c1ccc(OCC2CO2)cc1)c1ccc(OCC2CO2)cc1 (stereo not drawn) | inconclusive: 4960 nM | –
CC#Cc1cc(C)nc(Nc2ccccc2)n1 | inconclusive: 25000 nM | –
CC(C)(O)C(=O)Nc1ccc([N+](=O)[O-])c(C(F)(F)F)c1 | inconclusive: 31.3 nM | –
Oc1ccc(C(c2ccc(O)cc2)(C(F)(F)F)C(F)(F)F)cc1 | active: 19.2 µM and active: 20.7 µM and active: 19.7 µM | –
CCC(C)(c1ccc(O)cc1)c1ccc(O)cc1 | inconclusive: 324 nM | inactive

Target: PGR (gene 5241) (UniProt P06401)
Assay: NVS_NR_hPR: NovaScreen (NVS) Nuclear Receptor Binding Assay for human Progestron Receptor (PR) (AID 2283360);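 note: active means loss of bound radioligand signal versus DMSO baseline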
Method in brief: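 Radioligand competition binding on receptor extracted from T47D cells, read by scintillation counting 18 h after dosing. Loss of signal versus DMSO; primary screen in duplicate at 25 uM, actives followed in concentration series.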

SMILES | outcome | AC50
CCN(CC)c1nc(C)cc(OP(=S)(OC)OC)n1 | inactive | –
CCC[CH2][Sn]([Cl])([CH2]CCC)[CH2]CCC | – | active: 2.92 µM
COc1cccc(C(=O)NN(C(=O)c2cc(C)cc(C)c2)C(C)(C)C)c1C | – | inconclusive: 0.216 µM
CC(C)(C)C(=O)C(Oc1ccc(Cl)cc1)n1cncn1 (stereo not drawn) | – | inconclusive: 0.164 µM
O=C1c2ccccc2C(=O)N1SC(Cl)(Cl)Cl | – | inconclusive: 1.86 µM
CC(C)(O)C(=O)Nc1ccc([N+](=O)[O-])c(C(F)(F)F)c1 | inactive | –

From PubChem BioAssay (EPA / NIEHS)
